The target in experiment [1] is T1, hXkr8-T302C-mGFP (human) (UniProt Q9H6D3).
T1 sequence: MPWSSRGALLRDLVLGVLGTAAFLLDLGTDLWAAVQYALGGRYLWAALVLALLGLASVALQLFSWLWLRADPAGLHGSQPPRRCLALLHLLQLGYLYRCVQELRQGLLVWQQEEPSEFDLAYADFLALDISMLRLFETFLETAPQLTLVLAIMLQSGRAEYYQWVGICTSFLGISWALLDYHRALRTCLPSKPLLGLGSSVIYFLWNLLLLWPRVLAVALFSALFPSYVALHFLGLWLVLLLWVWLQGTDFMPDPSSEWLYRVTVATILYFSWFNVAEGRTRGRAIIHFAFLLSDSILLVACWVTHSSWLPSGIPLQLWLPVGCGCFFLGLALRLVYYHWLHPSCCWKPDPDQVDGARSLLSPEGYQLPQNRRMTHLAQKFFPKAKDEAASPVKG
The experiment is described as follows: cross-linking.

The target of experiment [2] is T2, hXkr8-T305C-mGFP (human) (UniProt Q9H6D3).
T2 sequence: T1 sequence with C302T, T305C
The experiment can be described thus: cross-linking.

Positions count from the first letter of the chain named. Results are given in words; binding and its absence hold for the method and conditions named. Binding seen in cells or lysates may run through a third protein. Binding calls can cover weak binding; strength is not graded here. Sequences can lack the tags named with a protein.

With hBSG-P211C-HA (human), the binding result in experiment [1] is given as “binds”. Take hBSG-A207C-HA (human): in experiment [2], the binding entry is reported as “binds”.

These data come from doi:10.1101/2021.05.06.442885.
